# Data published in US20160137689 (published 2016).
# Experiments:
# [1] = general procedure: Fmoc solid-phase peptide synthesis; 4-methoxytrityl resin; DIC/HOBt; settings: whole synthesis
# [2] = general procedure: Fmoc solid-phase peptide synthesis; trityl chloride resin; DIC/HOBt; settings: whole synthesis, scale 10 mmol, TFA salt
# [3] = general procedure: Fmoc solid-phase peptide synthesis; trityl, 2-chlorotrityl, 4-methyltrityl or 4-methoxytrityl resin (attachment through Orn/Lys side chain); DIC/HOBt; settings: whole synthesis, scale 0.55 mmol, TFA salt (Atosiban)
# [4] = scale 0.64 mmol, TFA salt (Atosiban)
substance,measurement,setting,value
Atosiban,isolated mass,"[1]; scale 1.0 mmol, TFA salt",0.79 g
same,isolated yield,"[1]; scale 1.0 mmol, TFA salt",48.6%
same,isolated mass,[2],7.14 g
same,isolated yield,[2],44.8%
Pyr-His-Trp-Ser-Tyr-D-Leu-Leu-Arg-Pro-NHEt,isolated mass,[3],488.1 mg
same,isolated yield,[3],61.5%
Pyr-His-Trp-Ser-Tyr-D-Ser(tBu)-Leu-Arg-Pro-Azagly-NH2,isolated mass,[1]; [4],0.5553 g
same,isolated yield,[1]; [4],67.6%
Pyr-His-Trp-Ser-Tyr-D-Ser(tBu)-Leu-Arg-Pro-NHEt,isolated mass,[3],477.0 mg
same,isolated yield,[3],61.8%
